Test results taken from US20060205669A1 (The Regents of the University of California, priority 2004, published 2006).
*: point of attachment. Fmoc = O=C(OCC1c2ccccc2-c2ccccc21)*; Boc = CC(C)(C)OC(=O)*; OtBu = CC(C)(C)O*; tBu = CC(C)(C)*

Columns and labels:
[1] = general procedure: Fmoc solid-phase peptide synthesis; Cl-TrT-Resin; HBTU/HOBT; DIC/HOBT; settings: whole synthesis, scale 5 mmol
[2] = general procedure: Fmoc solid-phase peptide synthesis; Rink Amide; HBTU/HOBT; DIC/HOBT; settings: whole synthesis, scale 1 mmole
[3] = peptide synthesis; settings: coupling step

Ac-D(OtBu)WFK(Boc)AF-OH
crude yield [1]: 32%

Ac-DWFKAFYDKVAEKFKEAF-NH2
crude yield ([2]; run 1): 86% | isolated yield ([2]; run 1): 25% | crude yield ([2]; run 2): 86% | isolated yield ([2]; run 2): 22.5% | crude yield ([2]; run 3): 43% | isolated yield ([2]; run 3): 10%

Fmoc-Y(But)-D(But)-K(Boc)-V-A-E(But)-K(Boc)-F-K(Boc)-E(But)-F-Co-NH2
step yield [3]: Yield was 50%

Fmoc-Y(tBu)D(OtBu)K(Boc)VAE(OtBu)-OH
crude yield [1]: 36%
